Values of other authors in US20110091544A1 (priority 2009, published 2011).
The name of at least one read-out is uncertain.

Details: sublingual compared with oral administration

Q: With `Cc1nnc2n1-c1ccc(Cl)cc1C(c1ccccc1Cl)=NC2` [triazolam, 8-chloro-6-(o-chlorophenyl)-1-methyl-4H-s-triazolo-[4,3-alpha][1,4]benzodiazepine] as the compound, how does the higher bioavailability read?
A: 28%
